The other results are listed elsewhere or left out.
How the values were obtained:
Test in all cases: log2 fold change, soluble protein after heating vs DMSO (PISA); higher = thermal stabilisation; K562 cells, 10 uM, 30 min; active = over 0.2 and 3.5 SD of the protein, either way, in both replicates (recomputed)
[1] = compound: CN1CCN(CCOc2cc(OC3CCOCC3)c3c(Nc4c(Cl)ccc5c4OCO5)ncnc3c2)CC1 [saracatinib]
How it was run: (§1)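 Quantification of soluble protein used TMTpro 16plex LC-MS/MS, with channel sums equalised. Samples were the supernatant after 21,000xg for 90 min of pooled aliquots from K562 cells (2×10^6 cells/mL) treated with 10 μM compound for 30 min, heated for 3 min over 48°C-58°C, and extracted in PBS with 0.5% NP-40 at 4°C. Values, from duplicates, describe thermal stability against control samples on a log2 fold-change scale.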

Protein sequences, listed by entry. Tags and fused reporters are not part of them. Lines headed by an entry give the natural chain unless they say otherwise; changes in a name come on top.
UniProt Q96SI9: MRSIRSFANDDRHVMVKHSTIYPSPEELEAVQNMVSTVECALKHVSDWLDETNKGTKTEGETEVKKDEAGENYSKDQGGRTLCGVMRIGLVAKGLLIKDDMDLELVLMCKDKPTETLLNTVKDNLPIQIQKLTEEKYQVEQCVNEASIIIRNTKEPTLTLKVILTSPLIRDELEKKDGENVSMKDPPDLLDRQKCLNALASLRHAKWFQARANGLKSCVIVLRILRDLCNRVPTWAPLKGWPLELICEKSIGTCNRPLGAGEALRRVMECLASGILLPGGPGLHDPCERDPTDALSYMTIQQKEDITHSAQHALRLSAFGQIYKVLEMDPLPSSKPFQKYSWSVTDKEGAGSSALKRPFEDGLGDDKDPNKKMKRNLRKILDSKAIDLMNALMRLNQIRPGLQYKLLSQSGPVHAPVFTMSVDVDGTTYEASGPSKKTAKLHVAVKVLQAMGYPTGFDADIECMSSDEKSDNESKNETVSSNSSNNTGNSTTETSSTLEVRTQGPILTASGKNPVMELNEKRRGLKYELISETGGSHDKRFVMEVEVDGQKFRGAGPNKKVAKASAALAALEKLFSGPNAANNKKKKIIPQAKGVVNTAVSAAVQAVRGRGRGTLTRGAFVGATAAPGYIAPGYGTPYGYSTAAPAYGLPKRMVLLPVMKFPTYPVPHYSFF
UniProt Q86TM6, whole entry, looked up: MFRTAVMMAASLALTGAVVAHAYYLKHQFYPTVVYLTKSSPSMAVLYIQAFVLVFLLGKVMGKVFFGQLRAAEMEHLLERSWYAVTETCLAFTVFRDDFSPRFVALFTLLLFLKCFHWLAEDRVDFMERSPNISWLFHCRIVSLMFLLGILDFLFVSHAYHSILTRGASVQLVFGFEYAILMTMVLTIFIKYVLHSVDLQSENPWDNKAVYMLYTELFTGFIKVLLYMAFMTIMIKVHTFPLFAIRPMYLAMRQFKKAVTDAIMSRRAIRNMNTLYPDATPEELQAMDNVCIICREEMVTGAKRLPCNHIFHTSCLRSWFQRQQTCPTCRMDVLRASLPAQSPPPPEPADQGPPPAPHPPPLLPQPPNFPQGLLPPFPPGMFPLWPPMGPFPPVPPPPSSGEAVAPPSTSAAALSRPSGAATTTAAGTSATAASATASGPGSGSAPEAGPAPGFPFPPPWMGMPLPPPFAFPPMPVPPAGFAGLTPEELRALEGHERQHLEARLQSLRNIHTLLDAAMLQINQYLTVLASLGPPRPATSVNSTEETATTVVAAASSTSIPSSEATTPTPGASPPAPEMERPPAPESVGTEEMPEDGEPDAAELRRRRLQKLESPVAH
UniProt Q15750: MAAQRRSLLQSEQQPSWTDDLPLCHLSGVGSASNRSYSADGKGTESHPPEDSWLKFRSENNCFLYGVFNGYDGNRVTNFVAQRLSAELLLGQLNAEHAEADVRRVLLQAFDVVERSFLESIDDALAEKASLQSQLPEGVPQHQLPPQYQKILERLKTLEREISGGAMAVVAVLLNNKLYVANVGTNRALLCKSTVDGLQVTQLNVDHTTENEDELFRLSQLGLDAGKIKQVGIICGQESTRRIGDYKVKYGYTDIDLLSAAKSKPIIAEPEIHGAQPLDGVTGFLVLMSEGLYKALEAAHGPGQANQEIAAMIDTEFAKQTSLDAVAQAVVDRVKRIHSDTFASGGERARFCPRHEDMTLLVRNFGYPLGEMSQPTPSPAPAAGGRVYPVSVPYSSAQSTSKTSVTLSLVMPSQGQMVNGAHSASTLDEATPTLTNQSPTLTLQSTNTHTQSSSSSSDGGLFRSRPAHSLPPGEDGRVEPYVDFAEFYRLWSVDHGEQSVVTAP
UniProt P61956, whole entry, looked up: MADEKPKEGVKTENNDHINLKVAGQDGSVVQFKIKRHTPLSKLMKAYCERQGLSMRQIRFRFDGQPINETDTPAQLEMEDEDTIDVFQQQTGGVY
UniProt Q8IYB8: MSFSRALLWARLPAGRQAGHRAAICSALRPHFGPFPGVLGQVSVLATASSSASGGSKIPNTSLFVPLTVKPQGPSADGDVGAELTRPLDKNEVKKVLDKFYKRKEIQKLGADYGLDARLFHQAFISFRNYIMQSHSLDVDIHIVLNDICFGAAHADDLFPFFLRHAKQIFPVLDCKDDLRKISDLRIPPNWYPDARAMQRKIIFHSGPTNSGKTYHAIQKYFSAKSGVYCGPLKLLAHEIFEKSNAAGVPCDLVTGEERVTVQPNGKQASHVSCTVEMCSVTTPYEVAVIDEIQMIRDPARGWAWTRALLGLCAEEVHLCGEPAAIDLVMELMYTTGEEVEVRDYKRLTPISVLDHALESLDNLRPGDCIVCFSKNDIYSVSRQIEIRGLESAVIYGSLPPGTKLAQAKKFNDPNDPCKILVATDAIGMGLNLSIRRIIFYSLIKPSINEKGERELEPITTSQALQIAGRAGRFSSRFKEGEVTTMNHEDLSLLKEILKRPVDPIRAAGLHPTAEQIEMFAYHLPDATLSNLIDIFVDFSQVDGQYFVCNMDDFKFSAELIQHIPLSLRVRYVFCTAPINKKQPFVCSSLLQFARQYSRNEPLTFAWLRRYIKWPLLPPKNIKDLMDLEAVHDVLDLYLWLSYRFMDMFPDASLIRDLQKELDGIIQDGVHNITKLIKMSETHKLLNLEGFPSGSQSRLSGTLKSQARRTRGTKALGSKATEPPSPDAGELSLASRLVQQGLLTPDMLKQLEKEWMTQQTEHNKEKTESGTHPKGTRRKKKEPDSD
UniProt P16949: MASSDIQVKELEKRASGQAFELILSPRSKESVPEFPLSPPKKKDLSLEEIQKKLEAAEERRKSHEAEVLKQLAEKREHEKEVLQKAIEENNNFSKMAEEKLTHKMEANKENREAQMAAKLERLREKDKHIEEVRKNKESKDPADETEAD
UniProt Q16563: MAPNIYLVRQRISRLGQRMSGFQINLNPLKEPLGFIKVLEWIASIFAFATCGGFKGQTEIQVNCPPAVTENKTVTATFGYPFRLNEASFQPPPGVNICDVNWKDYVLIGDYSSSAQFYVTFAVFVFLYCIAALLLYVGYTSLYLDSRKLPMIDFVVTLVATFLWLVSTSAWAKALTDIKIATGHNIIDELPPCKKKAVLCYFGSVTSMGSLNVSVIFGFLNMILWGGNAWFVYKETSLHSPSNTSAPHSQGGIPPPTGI
UniProt Q9NVG8: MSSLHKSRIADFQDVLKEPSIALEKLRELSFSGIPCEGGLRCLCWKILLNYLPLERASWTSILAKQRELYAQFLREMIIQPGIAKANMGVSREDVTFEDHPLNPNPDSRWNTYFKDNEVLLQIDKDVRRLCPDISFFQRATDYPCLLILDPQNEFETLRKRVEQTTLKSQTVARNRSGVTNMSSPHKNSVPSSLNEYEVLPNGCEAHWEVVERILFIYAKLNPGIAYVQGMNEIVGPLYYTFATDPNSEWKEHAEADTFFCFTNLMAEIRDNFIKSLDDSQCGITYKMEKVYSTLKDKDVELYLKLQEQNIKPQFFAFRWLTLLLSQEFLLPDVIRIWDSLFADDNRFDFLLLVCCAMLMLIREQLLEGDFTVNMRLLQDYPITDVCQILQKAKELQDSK
UniProt P26639: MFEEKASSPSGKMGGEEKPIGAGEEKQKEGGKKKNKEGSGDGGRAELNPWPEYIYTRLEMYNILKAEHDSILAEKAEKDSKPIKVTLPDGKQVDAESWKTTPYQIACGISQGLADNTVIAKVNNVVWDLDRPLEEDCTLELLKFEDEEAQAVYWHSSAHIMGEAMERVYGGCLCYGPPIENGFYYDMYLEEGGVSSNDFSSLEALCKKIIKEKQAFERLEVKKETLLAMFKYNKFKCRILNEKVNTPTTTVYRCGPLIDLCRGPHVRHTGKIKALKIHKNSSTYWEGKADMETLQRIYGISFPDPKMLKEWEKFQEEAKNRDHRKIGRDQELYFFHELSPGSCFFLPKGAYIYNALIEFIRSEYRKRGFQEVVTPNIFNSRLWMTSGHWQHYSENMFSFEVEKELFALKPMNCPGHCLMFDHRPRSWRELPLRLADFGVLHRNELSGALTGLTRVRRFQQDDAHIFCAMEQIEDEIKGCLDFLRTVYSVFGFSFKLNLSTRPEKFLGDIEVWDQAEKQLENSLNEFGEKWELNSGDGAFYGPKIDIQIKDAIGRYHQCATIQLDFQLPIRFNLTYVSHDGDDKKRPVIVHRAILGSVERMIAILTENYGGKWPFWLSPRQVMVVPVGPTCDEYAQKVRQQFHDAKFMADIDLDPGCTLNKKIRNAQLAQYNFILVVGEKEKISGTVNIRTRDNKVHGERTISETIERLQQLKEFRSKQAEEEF
UniProt P55854, whole entry, looked up: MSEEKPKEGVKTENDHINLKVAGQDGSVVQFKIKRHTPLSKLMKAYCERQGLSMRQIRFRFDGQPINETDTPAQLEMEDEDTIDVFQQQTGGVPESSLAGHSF
UniProt O60499: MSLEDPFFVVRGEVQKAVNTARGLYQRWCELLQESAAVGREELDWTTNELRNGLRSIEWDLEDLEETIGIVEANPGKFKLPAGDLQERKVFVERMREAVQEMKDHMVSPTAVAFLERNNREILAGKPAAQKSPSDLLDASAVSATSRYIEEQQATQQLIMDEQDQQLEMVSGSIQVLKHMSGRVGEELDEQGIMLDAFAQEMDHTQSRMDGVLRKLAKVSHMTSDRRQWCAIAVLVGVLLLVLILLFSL
UniProt Q17R31: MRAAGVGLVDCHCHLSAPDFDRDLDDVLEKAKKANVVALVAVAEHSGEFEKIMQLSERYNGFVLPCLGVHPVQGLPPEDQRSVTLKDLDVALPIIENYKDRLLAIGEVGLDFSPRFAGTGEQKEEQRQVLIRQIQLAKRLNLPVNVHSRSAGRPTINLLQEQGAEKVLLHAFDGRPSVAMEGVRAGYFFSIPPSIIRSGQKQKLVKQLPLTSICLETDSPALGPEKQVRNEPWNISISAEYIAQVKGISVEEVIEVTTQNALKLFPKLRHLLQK
UniProt Q96A49: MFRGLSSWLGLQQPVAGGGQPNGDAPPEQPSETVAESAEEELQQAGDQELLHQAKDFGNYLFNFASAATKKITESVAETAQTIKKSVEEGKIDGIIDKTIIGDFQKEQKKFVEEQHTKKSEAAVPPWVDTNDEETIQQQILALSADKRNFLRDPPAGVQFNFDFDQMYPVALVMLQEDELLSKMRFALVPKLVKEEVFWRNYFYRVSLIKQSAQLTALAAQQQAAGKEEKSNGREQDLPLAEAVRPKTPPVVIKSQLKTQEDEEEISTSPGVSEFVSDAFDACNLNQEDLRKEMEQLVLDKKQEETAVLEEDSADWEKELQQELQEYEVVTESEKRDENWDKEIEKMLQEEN
UniProt Q9UH65: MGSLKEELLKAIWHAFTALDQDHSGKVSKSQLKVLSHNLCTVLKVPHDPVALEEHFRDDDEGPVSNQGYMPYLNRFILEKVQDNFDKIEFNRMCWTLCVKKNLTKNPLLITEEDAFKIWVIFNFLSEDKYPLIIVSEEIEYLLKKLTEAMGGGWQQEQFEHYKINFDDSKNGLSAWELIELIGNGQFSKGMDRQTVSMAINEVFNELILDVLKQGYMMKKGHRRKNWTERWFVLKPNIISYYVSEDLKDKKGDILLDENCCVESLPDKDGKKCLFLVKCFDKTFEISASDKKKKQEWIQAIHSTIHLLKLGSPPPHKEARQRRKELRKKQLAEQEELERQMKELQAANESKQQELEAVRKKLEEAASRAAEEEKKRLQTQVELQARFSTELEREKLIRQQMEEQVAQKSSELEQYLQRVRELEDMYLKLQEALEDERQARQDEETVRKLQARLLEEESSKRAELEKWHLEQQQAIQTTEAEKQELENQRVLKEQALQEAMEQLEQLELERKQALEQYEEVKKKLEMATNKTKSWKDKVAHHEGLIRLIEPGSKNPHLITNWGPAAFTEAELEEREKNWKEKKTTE

[2] = compound: CN1CCN(c2nc(C3=C(c4c[nH]c5ccccc45)C(=O)NC3=O)c3ccccc3n2)CC1 [sotrastaurin]
How it was run: as §1

[3] = compound: CN1CC[C@H](c2c(O)cc(O)c3c(=O)cc(-c4ccccc4Cl)oc23)[C@H](O)C1 [alvocidib]
How it was run: as §1

[4] = compound: CN1CCc2c(c3ccccc3n2Cc2ccc(C(=O)NO)cc2)C1 [Tubastatin A]
How it was run: as §1

[5] = compound: CNC(=O)C1=CC=CC=C1NC2=NC(=NC=C2Cl)NC3=C(C=C(C=C3)N4CCOCC4)OC
How it was run: as §1

[6] = compound: CNC(=O)c1ccc(Nc2ncc(C(F)(F)F)c(NCc3nccnc3N(C)S(C)(=O)=O)n2)cc1 [defactinib]
How it was run: as §1

[7] = compound: CNCc1ccc(-c2[nH]c3cc(F)cc4c3c2CCNC4=O)cc1 [rucaparib]
How it was run: as §1

[8] = compound: CNc1nc(-c2ccc3c(N)n[nH]c3c2)cc(N2C[C@@H](C(=O)NC3CCCCC3)CC[C@H]2C)n1
How it was run: as §1

[9] = compound: COC(=O)N[C@@H](C)CNc1nccc(-c2cn(C(C)C)nc2-c2cc(Cl)cc(NS(C)(=O)=O)c2F)n1 [encorafenib]
How it was run: as §1

[10] = compound: COC(=O)[C@H](CCSC)NC(=O)C1=C(C=C(C=C1)NC[C@H](CS)N)C2=CC=CC=C2
How it was run: as §1

[11] = compound: COC1=CC=C(C=C1)CN2C=CC3=C2C=C(C=C3)C(=O)NO
How it was run: as §1

[12] = compound: CON(C)C(=O)N1N=C(c2cc(F)ccc2F)S[C@@]1(CCCN)c1ccccc1 [filanesib]
How it was run: as §1

[13] = compound: CO[C@H]1C[C@@H]2CC[C@@H](C)[C@@](O)(O2)C(=O)C(=O)N2CCCC[C@H]2C(=O)O[C@H]([C@H](C)C[C@@H]2CC[C@H](n3cnnn3)[C@H](OC)C2)CC(=O)[C@H](C)/C=C(\C)[C@@H](O)[C@@H](OC)C(=O)[C@H](C)C[C@H](C)/C=C/C=C/C=C/1C [zotarolimus]
How it was run: as §1

[14] = compound: COc1cc(C(=O)O)ccc1NC(=O)[C@@H]1N[C@@H](CC(C)(C)C)[C@](C#N)(c2ccc(Cl)cc2F)[C@H]1c1cccc(Cl)c1F [idasanutlin]
How it was run: as §1

[15] = compound: COc1cc(Nc2ncc3c(n2)-c2ccc(Cl)cc2C(c2c(F)cccc2OC)=NC3)ccc1C(=O)O [alisertib]
How it was run: as §1

[16] = compound: COc1cc2nc(-c3cc(F)ccc3O)nc(N[C@@H]3CNC[C@H]3C(C)(C)O)c2cc1OC
How it was run: as §1

[17] = compound: COc1cc2ncnc(Nc3ccc(F)c(Cl)c3)c2cc1OCCCN1CCOCC1 [gefitinib]
How it was run: as §1

[18] = compound: COc1cccc2cc(-c3nc([C@H]4CC[C@H](C(=O)O)CC4)n4ncnc(N)c34)[nH]c12
How it was run: as §1

[19] = compound: CS(=O)(=O)CCNCc1ccc(-c2ccc3ncnc(Nc4ccc(OCc5cccc(F)c5)c(Cl)c4)c3c2)o1 [lapatinib]
How it was run: as §1

[20] = compound: CS(=O)(=O)N1CCN(Cc2cc3nc(-c4cccc5[nH]ncc45)nc(N4CCOCC4)c3s2)CC1 [pictilisib]
How it was run: as §1

Measured: log2 fold change

STRBP (UniProt Q96SI9)
inactive: [1] -0.06 | [2] 0.04 | [3] 0.304 | [4] 0.079 | [5] -0.028 | [6] 0.351 | [7] 0.144 | [8] 0.034 | [9] -0.038 | [10] -0.123 | [11] 0.003 | [12] 0.191 | [13] -0.036 | [14] 0.114 | [15] -0.221 | [16] 0.085 | [17] -0.073 | [18] 0.039 | [19] 0.053

SYVN1 (UniProt Q86TM6)
inactive: [1] 0.009 | [2] -0.004 | [3] -0.069 | [4] 0.034 | [5] -0.036 | [6] -0.01 | [7] -0.138 | [8] -0.041 | [9] 0.027 | [10] 0.004 | [11] -0.049 | [12] -0.064 | [13] -0.021 | [14] -0.061 | [15] -0.028 | [16] -0.081 | [17] -0.005 | [18] 0.033 | [19] 0.006 | [20] 0.09

TAB1 (UniProt Q15750)
inactive: [1] -0.077 | [2] -0.086 | [3] 0.008 | [4] 0.115 | [5] -0.012 | [6] -0.129 | [7] -0.085 | [8] -0.035 | [9] 0.067 | [10] -0.05 | [11] 0.106 | [12] -0.037 | [13] 0.019 | [14] -0.031 | [15] -0.094 | [16] 0.181 | [17] -0.07 | [18] -0.081 | [19] -0.128 | [20] 0.019

SUMO2 (UniProt P61956)
inactive: [1] 0.153 | [2] 0.114 | [3] 0.076 | [4] -0.118 | [5] -0.076 | [6] 0.012 | [7] -0.034 | [8] -0.142 | [9] -0.008 | [10] 0.145 | [11] -0.053 | [12] 0.102 | [13] -0.127 | [14] 0.126 | [15] -0.06 | [16] -0.071 | [17] -0.018 | [18] 0.091 | [19] -0.036 | [20] -0.127

SUPV3L1 (UniProt Q8IYB8)
inactive: [1] 0.023 | [2] -0.056 | [3] 0.069 | [4] -0.012 | [5] -0.033 | [6] -0.037 | [7] 0.027 | [8] -0.049 | [9] -0.005 | [10] 0.008 | [11] 0.074 | [12] -0.023 | [13] -0.002 | [14] -0.007 | [15] 0.041 | [16] 0 | [17] 0.007 | [18] 0.014 | [19] -0.026 | [20] 0.002

SYNJ2BP-COX16, A0A087WYV9
inactive: [1] -0.021 | [2] 0.047 | [3] 0.001 | [4] -0.031 | [5] 0.02 | [6] -0.052 | [7] 0.021 | [8] -0.02 | [9] -0.046 | [10] 0.048 | [11] -0.078 | [12] 0.003 | [13] -0.042 | [14] 0.064 | [15] 0.002 | [16] -0.007 | [17] -0.01 | [18] 0.033 | [19] 0.033 | [20] 0.067

SUPT6H (UniProt Q7KZ85)
inactive: [1] -0.032 | [2] -0.047 | [3] 0.445 | [4] 0.032 | [5] -0.053 | [6] -0.039 | [7] 0.06 | [8] 0.079 | [9] -0.008 | [10] -0.233 | [11] 0.088 | [12] -0.035 | [13] -0.081 | [14] -0.07 | [15] 0.203 | [16] 0.066 | [17] -0.122 | [18] -0.12 | [19] -0.136 | [20] -0.028

STMN1 (UniProt P16949)
inactive: [1] 0.011 | [2] 0.06 | [3] 0.002 | [4] -0.005 | [5] -0.046 | [6] -0.004 | [7] -0.085 | [8] -0.016 | [9] 0.011 | [10] 0.037 | [11] -0.003 | [12] -0.038 | [13] 0.001 | [14] 0.037 | [15] -0.057 | [16] -0.006 | [17] 0.008 | [18] 0.033 | [19] -0.071 | [20] -0.032

Three consecutive records from above, for reference:
SUMO2 (UniProt P61956)
inactive: [1] 0.153 | [2] 0.114 | [3] 0.076 | [4] -0.118 | [5] -0.076 | [6] 0.012 | [7] -0.034 | [8] -0.142 | [9] -0.008 | [10] 0.145 | [11] -0.053 | [12] 0.102 | [13] -0.127 | [14] 0.126 | [15] -0.06 | [16] -0.071 | [17] -0.018 | [18] 0.091 | [19] -0.036 | [20] -0.127

SUPV3L1 (UniProt Q8IYB8)
inactive: [1] 0.023 | [2] -0.056 | [3] 0.069 | [4] -0.012 | [5] -0.033 | [6] -0.037 | [7] 0.027 | [8] -0.049 | [9] -0.005 | [10] 0.008 | [11] 0.074 | [12] -0.023 | [13] -0.002 | [14] -0.007 | [15] 0.041 | [16] 0 | [17] 0.007 | [18] 0.014 | [19] -0.026 | [20] 0.002

SYNJ2BP-COX16, A0A087WYV9
inactive: [1] -0.021 | [2] 0.047 | [3] 0.001 | [4] -0.031 | [5] 0.02 | [6] -0.052 | [7] 0.021 | [8] -0.02 | [9] -0.046 | [10] 0.048 | [11] -0.078 | [12] 0.003 | [13] -0.042 | [14] 0.064 | [15] 0.002 | [16] -0.007 | [17] -0.01 | [18] 0.033 | [19] 0.033 | [20] 0.067

(further entries)

SYPL1 (UniProt Q16563)
inactive: [1] 0.05 | [2] 0.034 | [3] -0.047 | [4] -0.007 | [5] 0.027 | [6] -0.025 | [7] -0.028 | [8] -0.032 | [9] 0.032 | [10] 0.005 | [11] -0.065 | [12] -0.083 | [13] -0.034 | [14] 0.003 | [15] -0.064 | [16] -0.008 | [17] 0.02 | [18] 0.096 | [19] -0.041 | [20] -0.024

TBC1D13 (UniProt Q9NVG8)
inactive: [1] 0.013 | [2] 0.065 | [3] -0.061 | [4] -0.058 | [5] -0.029 | [6] -0.035 | [7] -0.021 | [8] -0.045 | [9] -0.008 | [10] -0.004 | [11] 0.058 | [12] 0.001 | [13] 0.017 | [14] -0.087 | [15] -0.024 | [16] 0.021 | [17] -0.007 | [18] 0.064 | [19] -0.015 | [20] 0.079

TARS1 (UniProt P26639)
inactive: [1] 0 | [2] -0.006 | [3] -0.067 | [4] -0.028 | [5] -0.005 | [6] -0.032 | [7] -0.003 | [8] 0.052 | [9] 0.023 | [10] -0.008 | [11] 0.011 | [12] -0.142 | [13] 0.034 | [14] -0.071 | [15] -0.069 | [16] -0.032 | [17] -0.003 | [18] 0 | [19] 0.012 | [20] -0.028

SUMO3 isoform 2 (UniProt P55854)
inactive: [1] 0.039 | [2] 0.107 | [3] 0.094 | [4] -0.05 | [5] -0.096 | [6] 0.008 | [7] 0.015 | [8] -0.111 | [9] -0.024 | [10] 0.084 | [11] -0.11 | [12] 0.054 | [13] -0.057 | [14] 0.069 | [15] -0.065 | [16] -0.097 | [17] -0.033 | [18] 0.086 | [19] -0.019 | [20] -0.088

STX10 (UniProt O60499)
inactive: [1] 0.011 | [2] -0.082 | [3] -0.059 | [4] -0.009 | [5] -0.037 | [6] 0.011 | [7] 0.008 | [8] -0.018 | [9] 0.17 | [10] -0.017 | [11] 0.193 | [12] 0.013 | [13] 0.011 | [14] -0.112 | [15] -0.157 | [16] 0.01 | [17] 0.008 | [18] 0.091 | [19] -0.058 | [20] 0.024

TATDN3 isoform 3 (UniProt Q17R31)
inactive: [1] 0.033 | [2] 0.058 | [3] 0.04 | [4] 0.025 | [5] 0 | [6] 0.012 | [7] 0.021 | [8] -0.024 | [9] -0.009 | [10] 0.039 | [11] -0.093 | [12] -0.004 | [13] -0.145 | [14] -0.018 | [15] -0.051 | [16] -0.002 | [17] -0.024 | [18] 0.021 | [19] -0.081 | [20] 0.104

SYAP1 (UniProt Q96A49)
inactive: [1] -0.004 | [2] -0.008 | [3] 0.001 | [4] -0.013 | [5] 0.106 | [6] -0.017 | [7] -0.052 | [8] -0.039 | [9] 0.023 | [10] 0.002 | [11] -0.028 | [12] -0.035 | [13] -0.003 | [14] -0.002 | [15] -0.028 | [16] -0.016 | [17] -0.008 | [18] -0.001 | [19] -0.038 | [20] -0.009

SWAP70 (UniProt Q9UH65)
inactive: [1] 0.009 | [2] -0.01 | [3] -0.012 | [4] 0.024 | [5] -0.007 | [6] -0.039 | [7] -0.063 | [8] -0.031 | [9] 0.09 | [10] -0.014 | [11] 0.036 | [12] -0.053 | [13] -0.018 | [14] -0.07 | [15] -0.015 | [16] 0.014 | [17] 0.028 | [18] 0.02 | [19] 0.019 | [20] -0.026

Source: the supplement of paper PMC10849652
